Test results taken from patent US20030103978A1.
Positions count from the first letter of the chain named. These are yes or no findings as the source states them, for the method shown. Some binding calls cover weakened binding; strength is not graded here. Values belong to the binder of their own block, whether it stands above or below them.

What was measured:
[1] = biological target: T1, human OPGbp[143-317] (human) (UniProt O14788); assay: phage ELISA: Fab-displaying phage titrated (ul phage addition/well, log axis 0.1-100) on plated human OPGbp[143-317], anti-M13-HRP and ABTS, A405 nm, single points
T1 sequence (looked up): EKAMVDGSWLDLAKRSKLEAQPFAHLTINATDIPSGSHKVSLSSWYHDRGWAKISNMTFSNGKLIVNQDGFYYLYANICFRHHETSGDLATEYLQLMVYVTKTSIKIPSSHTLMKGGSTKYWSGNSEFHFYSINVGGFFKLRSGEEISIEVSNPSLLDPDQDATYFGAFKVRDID

[2] = biological target: T1, human OPGbp[143-317] (human); assay: phage ELISA on plated OPGbp[143-317]
[3] = biological target: T1, human OPGbp[143-317] (human); assay: FRET competition assay: Fab (preparation B, TBS) preincubated with Eu-labelled OPGbp[143-317]; blocked partner: sODAR-Fc detected with anti-human Fc-APC; ratio 665 nm/620 nm against Conc (nM), log axis

binding [1]: binds
binding [2]: binds
B1: Fab “S” (Fab, V domains shown)
VH: EVQLLESGGGLVQPGRSLRLSCAASGFTFDDYAMHWVRQAPGKGLEWVSGISWNSGRIGYADSVKGRFTISRDNAKNSLYLQMNSLRPEDTAFYYCAKGGSTSARYSSGWYYWGQGTLVTVSS
VL: QSVLTQPPSVSVSPGQTATITCSGDALPKQYVYWYRQKPGQAPLLVIYEDSERPSGIPERFSGSSSGTEVTLSISGVQAEDEADYYCQSTDSSGTYVVFGGGTKLTVLS

binding [1]: binds
binding [3]: binds
binding [2]: binds
B2: Fab “AT” (Fab, V domains shown)
VH: QVQLVQSGAEVRKPGASVKVSCKASGYDFSNYAIHWVRQAPGQRLEWMGWINAGNGNTKFSQKFQGRITVTRDTAASTAYMELRSLRSEDTAVYYCARDSSNMVRGIIIAYYFDYWGQGTLVTVSS
VL: EIVMTQSPSSLSASVGDRVTITCRASQSISRYLNWYQLKPGKAPRLLIYGASSLQSGVPSRFSGSGSGAEFTLTISSLQPEDIATYYCQHTRAFGQGTKVEIKR

binding [1]: binds
binding [3]: binds
binding [2]: binds
B3: Fab “Y” (Fab, V domains shown)
VH: B2 VH with Q1E
VL: EIVLTQSPATLSFSPGERATLSCRASQSVGSYLAWYQQRPGQAPRPLIYDATNRATGIPTRFSGSGSGTDFTLTISSLEPEDFATYYCQHRRTFGRGTKLEIKR
